Reference: article PMC12431657, “Discovery and mechanistic insights of dibenzoylmethane as a broad spectrum inhibitor of coronavirus” (PLOS Pathogens, 2025)
Where a name gives a salt, the structure may show the parent alone. Read-outs that look alike come from different tables or passages of the source. Screen size: about 3,300 compounds; about 60 (2%) showed an effect of 50% or more. Some of the results follow.

Test system: HCoV-OC43
Parameters: species or system RD; HTS, protection from HCoV-OC43 induced cell death, luminescent cell viability (CellCounting-Lite 2.0), inhibition rate
Conditions: 24 h post infection, 1 h compound pre-incubation, 10 µM, inhibitor

| SMILES | OC43 Inhibition rate | OC43 Inhibition rate (OC43 Inhibition rate, 24 h) |
| --- | --- | --- |
| COC(=O)C1=CO[C@@H](O[C@@H]2O[C@H](CO)[C@@H](O)[C@H](O)[C@H]2O)[C@H]2[C@@H]1C(=O)C[C@@H]2C [Verbenalin] | -0.1% | – |
| COC(=O)C1=COC(O[C@@H]2O[C@H](CO)[C@@H](O)[C@H](O)[C@H]2O)/C(=C/C(=O)O)C1CC(=O)OCCc1ccc(O)c(O)c1 (stereo partly shown) [Oleuropeinic acid] | 0.1% | – |
| COc1cc(OC)c2ccc(=O)oc2c1 [Citropten] | 6.8% | – |
| N[C@H]1CONC1=O [L-Cycloserine] | 0.1% | – |
| C=C[C@@H]1C2=CCOC(=O)C2=CO[C@H]1O[C@@H]1O[C@H](CO)[C@@H](O)[C@H](O)[C@H]1O [Gentiopicroside] | -3.9% | – |
| c1c2c(cc3c1OCO3)-c1cc3cc4c(cc3c[n+]1CC2)OCO4 [Pseudocoptisine (chloride)] | 0.8% | – |
| O=c1ccoc2cc(O)cc(O)c12 [5,7-Dihydroxychromone] | -0.3% | – |
| CSC[C@H]1O[C@@H](n2cnc3c(N)ncnc32)[C@H](O)[C@@H]1O [5'-Methylthioadenosine] | 0.3% | – |
| O=C(/C=C/c1ccc(O)c(O)c1)OC1(C(=O)O)C[C@@H](O)C(O)[C@H](O)C1 (stereo partly shown) [1-Caffeoylquinic acid] | -0.5% | – |
| NC[C@H]1O[C@H](O[C@H]2[C@H](O)[C@@H](O[C@H]3O[C@H](CO)[C@@H](O)[C@H](N)[C@H]3O)[C@H](N)C[C@@H]2N)[C@H](N)C[C@@H]1O [Tobramycin] | 5.3% | – |
| Cc1cc(O)cc(O[C@@H]2O[C@H](CO)[C@@H](O)[C@H](O)[C@H]2O)c1 [Orcinol glucoside] | -0.9% | – |
| O=C(O)C1=CO[C@@H](O[C@@H]2O[C@H](CO)[C@@H](O)[C@H](O)[C@H]2O)[C@@H]2C(CO)=C[C@H](O)[C@H]12 [Deacetylasperulosidic Acid] | 0.6% | – |
| C[C@@H]1C(=O)O[C@H]2C[C@]34[C@@H]5OC(=O)[C@]3(O[C@@H]3OC(=O)[C@H](O)[C@@]34[C@H](C(C)(C)C)[C@H]5O)[C@]21O [Ginkgolide J] | -1.1% | – |
| C[C@@H]1O[C@@H](O[C@@H]2C(=O)c3c(O)cc(O)cc3O[C@H]2c2cc(O)cc(O)c2)[C@H](O)[C@H](O)[C@H]1O [Neosmitilbin] | 0% | – |
| CC(C)(O[C@@H]1O[C@H](CO)[C@@H](O)[C@H](O)[C@H]1O)[C@@H]1CC[C@](C)([C@H]2[C@@H](O)C[C@@]3(C)[C@@H]4C[C@H](O)[C@H]5C(C)(C)[C@@H](O[C@@H]6OC[C@@H](O)[C@H](O)[C@H]6O)CC[C@@]56C[C@@]46CC[C@]23C)O1 [Isoastragaloside IV] | -0.3% | – |
| Nc1ccccc1C(=O)C[C@H](N)C(=O)O [L-Kynurenine] | – | 0.4% |
| O=C(O)CNCC(=O)O [Iminodiacetic acid] | -0.8% | – |
| CC(C)CCC[C@@H](C)[C@H]1CC[C@H]2C3=CC=C4C[C@@H](O)CC[C@]4(C)[C@H]3CC[C@]12C [7-Dehydrocholesterol] | 44.4% | – |
| CCCCCCCCCC[C@H](C(=O)O)[C@]1(C(=O)O)CCC(=O)O1 [Spiculisporic acid] | 0.5% | – |
| CC(C)=CCc1c(O)cc(O)c2c(=O)cc(-c3ccc(O)cc3)oc12 [Licoflavone C] | 7.3% | – |
| CC(C)(O)[C@@H]1CC[C@](C)([C@H]2[C@@H](O)C[C@@]3(C)[C@@H]4C[C@H](O)[C@H]5C(C)(C)[C@@H](O)CC[C@@]56C[C@@]46CC[C@]23C)O1 [Cycloastragenol] | 0.7% | – |

Pulled by compound from the entries so far:

| SMILES | OC43 Inhibition rate | OC43 Inhibition rate (OC43 Inhibition rate, 24 h) |
| --- | --- | --- |
| CC(C)(O[C@@H]1O[C@H](CO)[C@@H](O)[C@H](O)[C@H]1O)[C@@H]1CC[C@](C)([C@H]2[C@@H](O)C[C@@]3(C)[C@@H]4C[C@H](O)[C@H]5C(C)(C)[C@@H](O[C@@H]6OC[C@@H](O)[C@H](O)[C@H]6O)CC[C@@]56C[C@@]46CC[C@]23C)O1 [Isoastragaloside IV] | -0.3% | – |
| Nc1ccccc1C(=O)C[C@H](N)C(=O)O [L-Kynurenine] | – | 0.4% |
| O=c1ccoc2cc(O)cc(O)c12 [5,7-Dihydroxychromone] | -0.3% | – |
| CC(C)=CCc1c(O)cc(O)c2c(=O)cc(-c3ccc(O)cc3)oc12 [Licoflavone C] | 7.3% | – |

Remaining list, next part:

| SMILES | OC43 Inhibition rate | OC43 Inhibition rate (OC43 Inhibition rate, 24 h) |
| --- | --- | --- |
| C[C@@H]1C/C=C/C=C/C=C/C=C/[C@H](O[C@@H]2O[C@H](C)[C@@H](O)[C@H](N)[C@@H]2O)C[C@@H]2O[C@](O)(C[C@@H](O)C[C@H]3O[C@@H]3/C=C/C(=O)O1)C[C@H](O)[C@H]2C(=O)O [Natamycin] | -0.1% | – |
| CC(=O)c1c(C)cc2cccc(O)c2c1O [Nepodin] | -1.8% | – |
| CC(C(O)c1ccc(O)cc1)N1CCC(Cc2ccccc2)CC1 (stereo not shown) [Ifenprodil (tartrate)] | 0.1% | – |
| Nc1ncnc2c1ncn2[C@@H]1O[C@H](COP(=O)(O)OP(=O)(O)OP(=O)(O)O)[C@@H](O)[C@H]1O [ATP (disodium trihydrate)] | – | -1.2% |
| CC1(C)CC[C@]2(C(=O)O)CC[C@]3(C)C(=CC[C@@H]4[C@@]5(C)C[C@@H](O)[C@H](O)[C@@](C)(CO)[C@@H]5CC[C@]43C)[C@@H]2[C@@H]1O [Arjungenin] | 0.8% | – |
| O=c1ccn([C@@H]2O[C@H](COP(=O)(O)OP(=O)(O)O)[C@@H](O)[C@H]2O)c(=O)[nH]1 [Uridine-5'-diphosphate disodium salt] | 5.4% | – |
| COc1cc(O)c2c(=O)c(OC)c(-c3ccc(OC)c(OC)c3)oc2c1 [Retusin] | 11.5% | – |
| O=c1cc(-c2ccccc2)oc2ccccc12 [Flavone] | 0.3% | – |
| CN(C)CCc1ccc(O)cc1 [Hordenine] | -0.7% | – |
| C=C1C(=O)O[C@@]23[C@H]1CC[C@@H](C)[C@@H]2CC[C@@]1(C)O[C@@H]31 [Arteannuin B] | 2.2% | – |
| O=C(CO)[C@@H](O)[C@H](O)[C@H](O)CO [Fructose] | – | -0.7% |
| COc1cc2c(cc1O)CCN1Cc3c(ccc(OC)c3OC)C[C@@H]21 [Corypalmine] | 2.8% | – |
| C=C(CC(=O)O)C(=O)O [Itaconic acid] | 6.9% | – |
| CC(=O)O[C@@H]1[C@H]2[C@H]3C[C@H]4C5=Nc6ccccc6[C@]51C[C@@H]2N4[C@H](C)C3C=O (stereo partly shown) [Perakine] | 1.7% | – |
| Cc1c(O)c(C)c2c(c1O)C(=O)C[C@@H](c1ccc(O)cc1)O2 [Farrerol] | 1.4% | – |
| CC(C)=CCC1=C(O)C(=O)c2ccccc2C1=O [Lapachol] | 27.9% | – |
| O=C(O)c1c(O)cc(O)cc1O [2,4,6-Trihydroxybenzoic acid] | 0.8% | – |
| O=C(OC[C@H]1O[C@@H](OC(=O)c2cc(O)c(O)c(O)c2)[C@H](OC(=O)c2cc(O)c(O)c(O)c2)[C@@H](OC(=O)c2cc(O)c(O)c(O)c2)[C@@H]1OC(=O)c1cc(O)c(O)c(O)c1)c1cc(O)c(O)c(O)c1 [Pentagalloylglucose] | 0.3% | – |
| CCCCC/C=C/C=C/C=O [trans,trans-2,4-Decadienal] | -1.8% | – |
| CN[C@@H]1[C@@H](O[C@H]2O[C@H](CO)[C@@H](N)[C@H](O)[C@H]2O)O[C@H]2C[C@@H](N)[C@@H](O[C@H]3[C@H](O)[C@@H](O)[C@H](N)C[C@@H]3N)O[C@@H]2[C@@H]1O [Apramycin (sulfate)] | -0.2% | – |
| C=CCc1ccc(O)c(-c2ccc(OC)c(CC=C)c2)c1 [4-O-Methyl honokiol] | 1.6% | – |

| SMILES | OC43 Inhibition rate | OC43 Inhibition rate (OC43 Inhibition rate, 24 h) |
| --- | --- | --- |
| COC(=O)C1=CO[C@@H](O)[C@@H]2C(CO)=CC[C@H]12 [Genipin] | 0.1% | – |
| O=c1c2c3c(ccc2cc2n1CCc1cc4c(cc1-2)OCO4)OCO3 [8-Oxocoptisine] | -0.2% | – |
| C[C@@H]1O[C@@H](O[C@@H]2[C@@H](O)[C@H](OCCc3ccc(O)c(O)c3)O[C@H](COC(=O)/C=C/c3ccc(O)c(O)c3)[C@H]2O)[C@H](O)[C@H](O)[C@H]1O [Isoacteoside] | -1% | – |
| O=C(/C=C/c1ccc(O)c2c1[C@H](C(=O)O)[C@@H](c1ccc(O)c(O)c1)O2)O[C@H](Cc1ccc(O)c(O)c1)C(=O)O [Lithospermic acid] | -1.1% | – |
| OC1OC[C@@H](O[C@@H]2OC[C@@H](O[C@@H]3OC[C@@H](O)[C@H](O)[C@H]3O)[C@H](O)[C@H]2O)[C@H](O)[C@H]1O (stereo partly shown) [Xylotriose] | -0.2% | – |
| CC(C)[C@]12O[C@H]1[C@@H]1O[C@]13[C@]1(O[C@H]1C[C@H]1C4=C(CC[C@@]13C)C(=O)OC4)[C@@H]2O [Triptolide] | 10.5% | – |
| CCCCC/C=C/C=C/C(=O)NCC(C)C [Pellitorine] | 5.3% | – |
| O=C1C[C@@H](c2ccc(O)cc2)Oc2cc(O[C@@H]3O[C@H](CO)[C@@H](O)[C@H](O)[C@H]3O)cc(O)c21 [Prunin] | 0.7% | – |
| Nc1ccncc1O [3-Hydroxy-4-aminopyridine] | 0.3% | – |
| C=CCSSCC=C [Diallyl disulfide] | -0.2% | – |
| CC(=O)c1cccc(O)c1 [3-Hydroxyacetophenone] | -0.1% | – |
| Cc1cc2nc3c(=O)[nH]c(=O)nc-3n(C[C@H](O)[C@H](O)[C@H](O)CO)c2cc1C [Riboflavin] | 0% | – |
| C[C@H](O)C(=O)O [L-Lactic acid] | 0% | – |
| C[C@H](CCC(=O)O)[C@H]1CC[C@H]2[C@@H]3CC[C@@H]4C[C@H](O)CC[C@]4(C)[C@H]3C[C@H](O)[C@]12C [Deoxycholic acid] | – | -0.7% |
| CCCCCCCCCCCCCC1=C(O)C(=O)C=C(O)C1=O [Rapanone] | 5.4% | – |
| NC1(C(=O)O)CC1 [1-Aminocyclopropane-1-carboxylic acid] | 2.9% | – |
| COc1ccc(-c2cc(=O)c3c(O)c(OC)c(OC)c(OC)c3o2)cc1 [Gardenin B] | 0.1% | – |
| Oc1cc(O)c2c(c1)O[C@]1(c3ccc(O)c(O)c3)Oc3cc(O)c4c(c3[C@H]2C1O)OC(c1ccc(O)c(O)c1)C(O)C4 (stereo partly shown) [Procyanidin A1] | 13.4% | – |
| CC(C)(CO)[C@@H](O)C(=O)NCCC(=O)O [D-Pantothenic acid (hemicalcium salt)] | – | 0.1% |
